Where two headings read alike, the source gives them in different places.
Assays:
P. aeruginosa = system: P. aeruginosa
Description: (§1) The sensor was placed inside an incubator at 37° C. while automatically measuring the acoustic spectrum every 15 minutes for 3 hours.

S. epidermidis = system: S. epidermidis
Description: as §1

With O=C(O)c1cn(C2CC2)c2cc(N3CCNCC3)c(F)cc2c1=O [ciprofloxacin] the “Δf plot versus no-drug” value (P. aeruginosa; 0.5 MIC, 3 hours, 37° C.) was “not enough to kill the bacteria”, the “time at which Δf plot started to taper off and flatten” value (P. aeruginosa; 1 MIC) was 1.5 h and the “Δf plot versus no-drug” value (P. aeruginosa; 5 MIC) was “grew slightly but never reached the same level as the no-drug Δf values”. The “Δf plot versus no-drug” value (P. aeruginosa; 10 MIC) was “grew slightly but never reached the same level as the no-drug Δf values”, the “Δf plot versus no-drug” value (S. epidermidis; 0.5 MIC, 3 hours, 37° C.) was “not enough to kill the bacteria” and the “time at which Δf plot started to taper off and flatten” value (S. epidermidis; 1 MIC) was 1 h. For the same molecule, the “Δf plot versus no-drug” value (S. epidermidis; 5 MIC) was “grew slightly but never reached the same level as the no-drug Δf values” and the “Δf plot versus no-drug” value (S. epidermidis; 10 MIC) was “grew slightly but never reached the same level as the no-drug Δf values”.

From patent US10801879B2, “Magnesium zinc oxide nanostructure modified biosensor and monitoring of response of cell population to an agent using the same” (Rutgers, The State University of New Jersey, priority 2015, dated 2020)
